Positions count from the first letter of the chain named. Results are given in words; binding and its absence hold for the method and conditions named. Some entries that bind do so weakly or less than the wild type.

Chains of the proteins cited; added tags and fusions are not shown. Lines headed by an entry give the natural chain unless they say otherwise; changes in a name come on top.
UniProt P11912: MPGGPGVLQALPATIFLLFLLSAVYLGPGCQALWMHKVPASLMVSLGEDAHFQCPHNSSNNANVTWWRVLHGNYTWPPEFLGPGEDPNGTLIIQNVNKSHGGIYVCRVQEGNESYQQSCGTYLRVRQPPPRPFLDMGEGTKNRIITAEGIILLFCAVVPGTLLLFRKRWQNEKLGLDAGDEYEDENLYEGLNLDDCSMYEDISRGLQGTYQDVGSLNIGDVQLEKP

Binding data for 21 molecules are collected here from patent publication EP4796567A2.

B1: phage display clone LB511-B6 (light chain CDR3 library, paired with H1) (antibody, V domains shown)
VH: QVQLVQSGAEVKKPGASVKVSCKASGYAFSYSWMNWVRQAPGQGLEWMGRIYPENGDTNYNGKFKGRVTMTRDTSISTAYMELSRLRSDDTAVYYCARWVYGYPHFDYWGQGTLVTVSS
VL: DVVMTQSPLSLPVTLGQPASISCKSSQSLLDSDGKTYLNWLQQRPGQSPRRLIYLVSKLDSGVPDRFSGSGSGTDFTLKISRVEAEDVGVYYCWQGTHVPFTFGGGTKVEIK
B2: phage display clone LB510-G5 (heavy chain library, paired with L2) (antibody, V domains shown)
VH: B1 VH with M34V
VL: B1 VL with V99F
B3: phage display clone LB511-A9 (light chain CDR3 library, paired with H1) (antibody, V domains shown)
VH: B1 VH
VL: B1 VL with V99I
B4: phage display clone LB509-C2 (heavy chain CDR3 library, paired with L2) (antibody, V domains shown)
VH: B1 VH with Y103L
VL: B1 VL with V99F
B5: phage display clone LB511-F6 (light chain CDR3 library, paired with H1) (antibody, V domains shown)
VH: B1 VH
VL: B1 VL with V99L
B6: phage display clone LB509-G2 (heavy chain CDR3 library, paired with L2) (antibody, V domains shown)
VH: B1 VH with F106L
VL: B1 VL with V99F
B7: phage display clone LB510-C7 (heavy chain library, paired with L2) (antibody, V domains shown)
VH: B1 VH with S30G
VL: B1 VL with V99F
B8: phage display clone LB511-F11 (light chain CDR3 library, paired with H1) (antibody, V domains shown)
VH: B1 VH
VL: B1 VL with V99R
B9: phage display clone LB512-A7 (light chain library, paired with H1) (antibody, V domains shown)
VH: B1 VH
VL: B1 VL with Q17L, V99F
B10: humanized anti-CD79 antibody LB517/LB519 (antibody, V domains shown)
VH: B1 VH with Y103L
VL: B1 VL with V99L
B11: affinity matured anti-CD79 antibody LB517/518 (antibody, V domains shown)
VH: B1 VH with Y103L
VL: B1 VL with V99I
B12: affinity matured anti-CD79 antibody LB495/520 (antibody, V domains shown)
VH: B1 VH
VL: B1 VL with V99R
B13: affinity matured anti-CD79 antibody LB517/520 (antibody, V domains shown)
VH: B1 VH with Y103L
VL: B1 VL with V99R
B14: affinity matured anti-CD79 antibody LB517/521 (antibody, V domains shown)
VH: B1 VH with Y103L
VL: B1 VL
B15: affinity matured anti-CD79 antibody LB495/521 (antibody, V domains shown)
VH: B1 VH
VL: B1 VL
B16: affinity matured anti-CD79 antibody LB517/PRI47 (antibody, V domains shown)
VH: B1 VH with Y103L
VL: B1 VL with V99F
B17: affinity matured anti-CD79 antibody LB495/519 (antibody, V domains shown)
VH: B1 VH
VL: B1 VL with V99L
B18: affinity matured anti-CD79 antibody LB495/518 (antibody, V domains shown)
VH: B1 VH
VL: B1 VL with V99I
B19: engineered anti-CD79 antibody LB630/519 (antibody, V domains shown)
VH: B1 VH with N55S, Y103L
VL: B1 VL with V99L
B20: engineered anti-CD79 antibody LB631/519 (antibody, V domains shown)
VH: B1 VH with N61A, Y103L
VL: B1 VL with V99L
B21: engineered anti-CD79 antibody LB632/519 (antibody, V domains shown)
VH: B1 VH with N55S, N61A, Y103L
VL: B1 VL with V99L

The target of one experiment is CD79 (UniProt P11912). Kind of experiment: competition ELISA of phage library clones, compared with parent H1L2.
B1: the binding result is reported as “binds”. Still for that read-out and setting: the value for B2 was “binds”. Consider B3, for which the binding entry is on record as “binds”.

Regarding B4, the binding result is reported as “binds”. For B5, the binding entry is reported as “binds”. B6: the binding entry was “binds”. The same measure, in the same setting: the value for B7 was “binds”; that for B8 was “binds”. Same read-out and setting: the value for B9 was “binds”.

In another experiment the target is CD79 (UniProt P11912). Kind of experiment: binding kinetics of full length IgG (Table 2).
B10: the binding result is “binds”. The same measure, in the same setting: then B11, with “binds”. B12: the binding result was “binds”. Same read-out and setting: the value for B13 was “binds”; that for B14 was “binds”.

On to B15, for which the binding entry is “binds”.

With B16, the binding entry is “binds”. Still for that read-out and setting: then B17, with “binds”; and B18, with “binds”.

A further experiment deals with CD79 (UniProt P11912). Kind of experiment: antigen binding kinetics (Table 3).
B19: the binding result is reported as “binds”.

With B20, the binding result was “binds”. On the same count and under the same terms, then B21, with “binds”.

The target of a further experiment is CD79 (UniProt P11912). Kind of experiment: binding kinetics.
In the case of B10, the binding result is “binds”.

Consider B11, for which the binding entry is on record as “binds”. In the case of B12, the binding entry is recorded as “binds”. The same measure, in the same setting: the value for B13 was “binds”; that for B14 was “binds”.

As for B15, the binding entry was “binds”. For B16, the binding entry is recorded as “binds”. Same read-out and setting: then B17, with “binds”. Same read-out and setting: then B18, with “binds”.

In a further experiment the target is CD79 (UniProt P11912). Kind of experiment: confirmatory dilution ELISA.
With B1, the binding entry is recorded as “binds”. Take B3: the binding entry is “binds”.

Turning to B4, the binding result is “binds”. Same read-out and setting: then B5, with “binds”; and B8, with “binds”.
